± gives the standard deviation of the averaged measurements. Most entries show no effect beyond the scatter of the controls.
Assays:
Test in all cases: level (log10 ratio to DMSO vehicle control); higher = higher biomarker level / cell amount than vehicle control
[1] = compound: FC(F)C(F)(F)COCC1CO1 [((2,2,3,3-Tetrafluoropropoxy)methyl)oxirane]; details: 2200 nM; in DMSO
Experimental: (§1)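 BioMAP Diversity Plus panel of 12 human primary cell co-culture systems (3C, 4H, LPS, SAg, BT, BF4T, BE3C, CASM3C, HDF3CGF, KF3CT, MyoF, Mphg). Compounds were added 1 h before stimulation and left for 24 h (MyoF 48 h; BT 72 h for soluble read-outs or 6 d for IgG). Biomarkers were read by ELISA, cytotoxicity by SRB, PBMC viability and proliferation by Alamar Blue. Each well value was divided by the mean of 8 DMSO control wells on the same plate and log10 transformed; duplicate blinded samples were tested at 4 concentrations.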

[2] = compound: OCC(F)(F)C(F)(F)C(F)(F)C(F)(F)C(F)(F)C(F)(F)C(F)(F)C(F)(F)C(F)(F)C(F)(F)C(F)(F)F [11:1 Fluorotelomer alcohol]; details: in DMSO
Experimental: as §1

Perfluoroundecanoic acid = compound: O=C(O)C(F)(F)C(F)(F)C(F)(F)C(F)(F)C(F)(F)C(F)(F)C(F)(F)C(F)(F)C(F)(F)C(F)(F)F [Perfluoroundecanoic acid]; details: in DMSO
Experimental: as §1

Perfluorooctanamide = compound: NC(=O)C(F)(F)C(F)(F)C(F)(F)C(F)(F)C(F)(F)C(F)(F)C(F)(F)F [Perfluorooctanamide]; details: 2200 nM; in DMSO
Experimental: as §1

[3] = compound: FC(F)(F)C(F)(F)C(F)(F)C(F)(F)C(F)(F)C(F)(F)C(F)(F)CCI [1-Iodo-1H,1H,2H,2H-perfluorononane]; details: in DMSO
Experimental: as §1

[4] = compound: O=C(O)C(F)(F)OC(F)(F)C(F)(F)OC(F)(F)C(F)(F)C(F)(F)C(F)(F)F [Perfluoro-3,6-dioxadecanoic acid]; details: 2200 nM; in DMSO
Experimental: as §1

[5] = compound: OCCC(F)(F)C(F)(F)C(F)(F)C(F)(F)C(F)(F)C(F)(F)C(F)(F)C(F)(F)F [8:2 Fluorotelomer alcohol]; details: 2200 nM; in DMSO
Experimental: as §1

[6] = compound: FC(F)(F)C(F)(F)C(F)(F)C(F)(F)C(F)(F)C(F)(F)C(F)(F)I [1-Iodopentadecafluoroheptane]; details: in DMSO
Experimental: as §1

[7] = compound: O=C(O)C(F)(F)C(F)(F)OC(F)(F)F [Perfluoro-3-methoxypropanoic acid]; details: 2200 nM; in DMSO
Experimental: as §1

Perfluorobutanoic acid = compound: O=C(O)C(F)(F)C(F)(F)C(F)(F)F [Perfluorobutanoic acid]; details: 2200 nM; in DMSO
Experimental: as §1

[8] = compound: O=C(O)C=CC(F)(C(F)(F)F)C(F)(F)F [3-(Perfluoroisopropyl)-2-propenoic acid]; details: in DMSO
Experimental: as §1

[9] = compound: O=C(O)C(F)(F)C(F)(F)C(F)(F)C(F)(F)C(F)(F)C(F)(F)C(F)(F)C(F)F [9-H-Perfluorononanoic acid]; details: 2200 nM; in DMSO
Experimental: as §1

[10] = compound: O=S(=O)(Cl)C(F)(F)C(F)(F)C(F)(F)C(F)(F)C(F)(F)C(F)(F)C(F)(F)C(F)(F)F [Perfluoro-1-octanesulfonyl chloride]; details: 2200 nM; in DMSO
Experimental: as §1

[11] = compound: C=CC(=O)OCC(F)(F)C(F)(F)C(F)(F)C(F)(F)COC(=O)C=C [1H,1H,6H,6H-Perfluorohexane-1,6-diol diacrylate]; details: 2200 nM; in DMSO
Experimental: as §1

[12] = compound: C=C(C)C(=O)OCC(F)(F)C(F)(F)C(F)(F)F [2,2,3,3,4,4,4-Heptafluorobutyl methacrylate]; details: 2200 nM; in DMSO
Experimental: as §1

[13] = compound: O=C(O)C(F)(F)OC(F)(F)C(F)(F)OC(F)(F)C(=O)O [Perfluoro-3,6-dioxaoctane-1,8-dioic acid]; details: 2200 nM; in DMSO
Experimental: as §1

Perfluoropropanoic acid = compound: O=C(O)C(F)(F)C(F)(F)F [Perfluoropropanoic acid]; details: 2200 nM; in DMSO
Experimental: as §1

[14] = compound: O=P(O)(O)CCC(F)(F)C(F)(F)C(F)(F)C(F)(F)C(F)(F)C(F)(F)C(F)(F)C(F)(F)F [((Perfluorooctyl)ethyl)phosphonic acid]; details: 2200 nM; in DMSO
Experimental: as §1

Test System | level (log10) [1] | level (log10) ([2]; 370 nM) | level (log10) ([2]; 1100 nM) | level (log10) ([2]; 3300 nM) | level (log10) ([2]; 10000 nM) | level (log10) (Perfluoroundecanoic acid; 740 nM) | level (log10) (Perfluoroundecanoic acid; 2200 nM) | level (log10) (Perfluorooctanamide) | level (log10) ([3]; 740 nM) | level (log10) ([3]; 2200 nM) | level (log10) ([3]; 6700 nM) | level (log10) ([3]; 20000 nM) | level (log10) [4] | level (log10) [5] | level (log10) ([6]; 740 nM) | level (log10) ([6]; 2200 nM) | level (log10) ([6]; 6700 nM) | level (log10) ([6]; 20000 nM) | level (log10) [7] | level (log10) (Perfluorobutanoic acid) | level (log10) ([8]; 2200 nM) | level (log10) ([8]; 6700 nM) | level (log10) ([8]; 20000 nM) | level (log10) ([8]; 60000 nM) | level (log10) [9] | level (log10) [10] | level (log10) [11] | level (log10) [12] | level (log10) [13] | level (log10) (Perfluoropropanoic acid) | level (log10) [14]
3C:HLA-DR | 0.037 ± 0.017 | -0.0055 ± 0.005 | -0.019 ± 0.0042 | -0.034 ± 0.011 | -0.04 ± 0.016 | -0.014 ± 0.016 | -0.025 ± 0.023 | 0.0045 ± 0.019 | 0.0165 ± 0.005 | 0.0135 ± 0.018 | -0.001 ± 0.017 | 0.0155 ± 0.025 | 0.048 ± 0.028 | -0.004 ± 0.047 | -0.024 ± 0.02 | -0.015 | -0.019 ± 0.0057 | -0.0075 ± 0.015 | 0.016 ± 0.033 | -0.0185 ± 0.011 | 0.0145 ± 0.0035 | 0.0095 ± 0.005 | -0.0135 ± 0.022 | -0.003 ± 0.028 | 0.002 ± 0.017 | -0.014 ± 0.021 | -0.0025 ± 0.0078 | 0.007 ± 0.023 | 0.0005 ± 0.0064 | 0.015 | 0.0345 ± 0.0078
BF4T:CD54/ICAM-1 | 0.0055 ± 0.018 | 0.011 ± 0.0057 | -0.0125 ± 0.005 | -0.015 ± 0.018 | -0.0015 ± 0.00071 | 0.003 ± 0.017 | -0.001 ± 0.014 | -0.0175 ± 0.011 | -0.003 ± 0.028 | -0.0095 ± 0.0092 | -0.007 ± 0.018 | -0.0345 ± 0.0064 | -0.0055 ± 0.023 | -0.0045 ± 0.028 | 0.007 ± 0.0014 | -0.016 ± 0.0099 | 0.004 ± 0.011 | -0.0025 ± 0.013 | 0.007 ± 0.025 | 0.0085 ± 0.025 | 0.017 ± 0.014 | 0.007 ± 0.0042 | -0.0005 ± 0.025 | 0.011 ± 0.0028 | -0.0225 ± 0.0021 | -0.009 ± 0.016 | -0.0195 ± 0.021 | 0.005 ± 0.024 | 0.013 ± 0.011 | 0.016 ± 0.02 | 0.009 ± 0.025
CASM3C:CXCL9/MIG | 0.018 ± 0.028 | 0.0035 ± 0.005 | 0.0005 ± 0.0035 | -0.002 ± 0.0028 | 0.014 ± 0.021 | -0.01 ± 0.034 | -0.004 ± 0.0071 | 0.014 ± 0.059 | 0.0125 ± 0.025 | 0.0155 ± 0.0035 | -0.0355 ± 0.025 | -0.057 ± 0.042 | 0.0235 ± 0.032 | 0.028 ± 0.017 | -0.0075 ± 0.043 | -0.0505 ± 0.056 | -0.0165 ± 0.025 | 0.018 ± 0.018 | 0.026 ± 0.073 | 0.0025 ± 0.015 | 0.0235 ± 0.06 | -0.004 ± 0.0099 | 0.002 ± 0.0057 | 0.027 ± 0.023 | -0.003 ± 0.037 | -0.009 ± 0.071 | -0.0025 ± 0.061 | 0.009 ± 0.037 | 0.023 ± 0.051 | 0.0225 ± 0.033 | 0.0445 ± 0.056
LPS:CD106/VCAM-1 | -0.0015 ± 0.033 | -0.033 ± 0.0014 | -0.025 ± 0.0042 | -0.025 ± 0.02 | -0.015 ± 0.0028 | 0.0105 ± 0.016 | 0.015 ± 0.033 | 0.0065 ± 0.023 | 0.003 ± 0.024 | 0.014 ± 0.0057 | 0.002 ± 0.011 | -0.0155 ± 0.039 | -0.0095 ± 0.015 | -0.034 ± 0.03 | 0.016 ± 0.021 | 0.0075 ± 0.029 | 0.0045 ± 0.016 | -0.005 ± 0.0071 | -0.0015 ± 0.015 | -0.004 ± 0.0028 | -0.0045 ± 0.0064 | 0.003 ± 0.018 | -0.023 ± 0.013 | -0.018 ± 0.021 | -0.0005 ± 0.012 | -0.017 ± 0.011 | -0.017 ± 0.014 | -0.026 ± 0.0099 | 0.002 ± 0.023 | -0.0065 ± 0.005 | 0.005 ± 0.013
MyoF:Collagen I | 0.0055 ± 0.00071 | 0.0425 ± 0.032 | 0.051 ± 0.047 | 0.0475 ± 0.021 | 0.0435 ± 0.013 | -0.0135 ± 0.016 | 0 ± 0.013 | 0.001 ± 0.013 | -0.0005 ± 0.029 | 0.002 ± 0.0099 | 0.007 ± 0.0042 | -0.015 ± 0.028 | -0.002 ± 0.0085 | -0.01 ± 0.02 | -0.013 ± 0.037 | -0.003 ± 0.0042 | -0.0495 ± 0.0021 | -0.339 ± 0.012 | 0.0065 ± 0.037 | 0.003 ± 0.0042 | 0.018 ± 0.045 | -0.0025 ± 0.012 | -0.002 ± 0.0042 | 0.002 ± 0.0085 | -0.007 ± 0.0028 | -0.016 ± 0.017 | -0.005 ± 0.052 | -0.008 ± 0.02 | 0.0175 ± 0.043 | 0.009 ± 0.0085 | 0.011 ± 0.0099
MyoF:alpha-SM Actin | -0.035 ± 0.028 | 0.0125 ± 0.056 | -0.0025 ± 0.015 | -0.0195 ± 0.03 | 0.0045 ± 0.018 | 0.009 ± 0.0099 | 0.012 ± 0.0085 | -0.0015 ± 0.0035 | -0.001 ± 0.0028 | 0.0055 ± 0.0078 | -0.016 ± 0.02 | -0.0435 ± 0.0035 | -0.051 ± 0.027 | 0.006 ± 0.068 | 0.0205 ± 0.0021 | -0.036 ± 0.0099 | -0.115 ± 0.016 | -0.291 ± 0.045 | 0.013 ± 0.052 | -0.0105 ± 0.037 | 0.0245 ± 0.04 | 0.0065 ± 0.021 | 0 ± 0.054 | 0.0245 ± 0.011 | 0.001 ± 0.0042 | 0.028 ± 0.016 | -0.0285 ± 0.00071 | 0.002 ± 0.086 | 0.018 ± 0.04 | -0.0275 ± 0.04 | 0.006 ± 0.033
lMphg:SRB | -0.0175 ± 0.005 | -0.001 ± 0.0028 | 0.0045 ± 0.00071 | 0.001 | -0.0205 ± 0.005 | 0.0015 ± 0.016 | -0.001 | -0.0085 ± 0.005 | 0.0005 ± 0.0021 | -0.0055 ± 0.00071 | -0.002 ± 0.0071 | 0.0065 ± 0.005 | -0.0225 ± 0.035 | -0.001 ± 0.018 | -0.0005 ± 0.0092 | 0.0045 ± 0.0035 | -0.01 ± 0.0014 | -0.0015 ± 0.0021 | -0.001 ± 0.0014 | -0.013 ± 0.031 | -0.0105 ± 0.0035 | -0.017 ± 0.0085 | -0.012 ± 0.0099 | -0.0085 ± 0.012 | 0.0075 ± 0.005 | 0.01 ± 0.0085 | -0.017 ± 0.011 | -0.002 ± 0.0014 | 0.005 ± 0.013 | -0.015 ± 0.0071 | 0.004 ± 0.0071

— the supplement of paper PMC10331698
